Substitutions are numbered along the chain they refer to. Numbers in names are those of the source. No constants are given. Whether binding was seen depends on the method and setting. Binding seen in cells or lysates may run through a third protein. Some results given as binding are weak or reduced against the parent protein; the word gives no strength. Tags and fused reporters may be left off the sequences shown.
T1: BASP1-tGFP (UniProt Q91XV3)
T1 sequence: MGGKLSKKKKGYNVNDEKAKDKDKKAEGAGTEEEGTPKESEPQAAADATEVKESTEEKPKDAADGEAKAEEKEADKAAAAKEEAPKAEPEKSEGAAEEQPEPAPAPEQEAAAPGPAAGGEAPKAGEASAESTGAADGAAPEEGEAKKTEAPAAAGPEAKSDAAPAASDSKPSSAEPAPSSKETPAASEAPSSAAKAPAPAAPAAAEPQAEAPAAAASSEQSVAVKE

B1: PLPPR3 ICDm-His (membrane-tagged intracellular domain of PLPPR3, aa 284-716) (domain or fragment, UniProt Q7TPB0-1 284-716)
chain: QAPPAEKVPTPAPAKDALRALTQRGHESMYQQNKSVSTDELGPPGRLEGVPRPVAREKTSLGSLKRASVDVDLLAPRSPMGKEGMVTFSNTLPRVSTPSLDDPARRHMTIHVPLDASRSRQLIGEWKQKSLEGRGLGLPDEASPVHLRAPAEQVAEEEEEEEEEEEEEEEEEEEEGPVPPSLYPTVQARPGLGPRVILPPRPGPQPLVHIPEEGVQAGAGLSPKSSSSSVRAKWLSVAEKGGGPVAVAPSQPRVANPPRLLQVIAMSKAAGGPKAETASSSSASSDSSQYRSPSDRDSASIVTIDAHAPHHPVVHLSAGSTPWEWKAKVVEGEGSYELGDLARGFRSSCKQPGMGPGSPVSDVDQEEPRFGAVATVNLATGEGLPPPGASEGALGAGSRESTLRRQVGGLAEREVEAEAESYYRRMQARRYQD
B2: PLPPR3-ICDm-S351A (domain or fragment, UniProt Q7TPB0-1 284-716)
chain: B1 chain with S68A

Molecular target: T1, BASP1-tGFP
Assay: co-IP

| Binder | binding |
| --- | --- |
| B1 | binds |
| B2 | binds |

From doi:10.1101/2024.03.11.584206
